Assay results taken from US12643855B2 (UNIVERSITE DE STRASBOURG, priority 2020, dated 2026).
For part of these data: One purity is given for all peptides; the source may state it once.

Columns and labels:
[1] = general procedure: Fmoc solid-phase peptide synthesis; Fmoc Rink Amide AM resin; HBTU/HOBt/DIEA; HATU/tetramethylpiperidine for Fmoc-Cys(Mmt)-OH; DIC/HOBt for 4-; details: whole synthesis, scale 0.21 mmol
[2] = general procedure: Fmoc solid-phase peptide synthesis; Fmoc Rink Amide AM resin (loading 0.7 mmol/g); HBTU/HOBt/DIEA; HATU/tetramethylpiperidine for Fmoc-Cys(Mmt)-OH; DIC/HOBt for 4-; details: whole synthesis, 220.8 nm, scale of the general procedure 0.21 mmol

With Lys(N3)-CBT the isolated mass [1] was 60 mg, the isolated yield [1] was 28% and the “final HPLC purity” value [2] was over 95%.
